# Test results from doi:10.1101/149047.
# Target: T1, OsNF-YB1 (rice (Oryza sativa)) (UniProt Q6Z348)
# T1 sequence: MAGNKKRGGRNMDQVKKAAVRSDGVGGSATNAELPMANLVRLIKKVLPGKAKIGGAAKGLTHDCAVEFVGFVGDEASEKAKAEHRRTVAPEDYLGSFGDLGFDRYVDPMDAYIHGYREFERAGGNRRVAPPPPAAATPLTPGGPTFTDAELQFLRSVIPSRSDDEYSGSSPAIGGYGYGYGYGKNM
# Assay: two-hybrid
row,Substance,binding
1,OsNF-YC11 (rice (Oryza sativa)),binds
2,OsERF74 (rice (Oryza sativa)),no binding
3,OsNF-YC10 (rice (Oryza sativa)),binds
4,OsNF-YC12 (rice (Oryza sativa)),binds
5,OsNF-YC9 (rice (Oryza sativa)),binds

# Other lines, results leading:
row,binding,Substance
1,no binding,OsNF-YA8 (rice (Oryza sativa))
2,binds,OsNF-YC8 (rice (Oryza sativa))
3,no binding,OsERF72 (rice (Oryza sativa))

# No constants are given. Whether binding was seen depends on the method and setting. Binding calls can cover weak binding; strength is not graded here.
